Measured values as given in PubChem BioAssay AID504834 (National Center for Advancing Translational Sciences (NCATS), 2011).
About 22,000 (6.9%) of roughly 320,000 compounds were called active. The shares of active, inactive and inconclusive entries below differ from those in the screen. Calls follow the shape of the dose curve; as a rule, active = well fitted inhibition curve with a large enough effect; inconclusive = small, poorly fitted or top-dose-only effect, or another doubt; inactive = no such curve, though single readings can be large or run the other way. A potency beside an inconclusive call is a rough fit, not a confirmed value.

Experiment: Primary qHTS for delayed death inhibitors of the malarial parasite plastid, 96 hour incubation
Details: P. falciparum luciferase reporter growth; series mostly up to 28.7 µM
Method in brief: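 Readout is luminescence from an integrated firefly luciferase in P. falciparum. Red cells, 2% hematocrit and 0.05% parasitemia final, were cultured with compound through two parasite generations (96 hours) at 37 C, 5% CO2.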
Potency is read from the fitted curve at half-maximal effect.

Question: Which Potency does the source give for Cc1ccc(CNC(=O)C2CCCN2S(=O)(=O)c2ccc3c(c2)C(C)(C)C(=O)N3C)cc1 (configuration not stated) here?
Answer: active: 1.47 µM

Question: Which Potency does the source give for CCCn1nc(C(=O)NNC(=O)CCOc2ccccc2OCC)c2ccccc2c1=O here?
Answer: inactive

Question: With COc1nc(-c2ccccc2)nc(C)c1CC(=O)O as the compound, how does the Potency read?
Answer: inactive

Question: Which Potency does the source give for CCC(c1nnnn1CCOC)N(Cc1cc2cc(C)c(C)cc2[nH]c1=O)CC1CCCO1 (configuration not stated) here?
Answer: active: 14.7 µM

Question: Which Potency does the source give for COc1ccccc1C(CC(=O)O)c1ccc2c(c1)OCO2 (configuration not stated) here?
Answer: inconclusive: 18.5 µM [inhibitor, single point]

Question: With O=C(CSCc1ccccc1Br)N/N=C/c1ccc(OCC(=O)N2CCCCC2)cc1 as the compound, how does the Potency read?
Answer: inconclusive: 3.7 µM [inhibitor, full curve, poor fit]

Question: With CCCn1c(=O)n(N)c2ccccc21 as the compound, how does the Potency read?
Answer: inactive

Question: Which Potency does the source give for CCC1CCCCN1C(=O)CN1C(=O)c2ccccc2S1(=O)=O (configuration not stated) here?
Answer: inactive

Question: For CCN(CC(=O)NCc1ccco1)S(=O)(=O)c1ccc(OC)cc1, which Potency is on record?
Answer: inactive

Question: For O=C(C1COc2ccccc2O1)N1CCN(c2ccccc2O)CC1 (configuration not stated), which Potency is on record?
Answer: inconclusive: 18.5 µM [inhibitor, single point]

Question: For CCN1CCCC1Cn1cnc2c([nH]c3ccc(C)cc32)c1=O (configuration not stated), which Potency is on record?
Answer: inconclusive: 18.5 µM [inhibitor, single point]

Question: For COc1ccc(N2CCN(CCNC(=O)c3ccc(NC(=O)C4CCCO4)cc3)CC2)cc1 (configuration not stated), which Potency is on record?
Answer: inconclusive: 8.28 µM [inhibitor, partial curve, poor fit]

Question: Which Potency does the source give for FC(F)(F)c1ccc(NC(=S)NCc2ccccc2)cc1 here?
Answer: inconclusive: 18.5 µM [inhibitor, single point]

Question: With Cc1ccc(/C=N/NC(=O)c2cccnc2)s1 as the compound, how does the Potency read?
Answer: inconclusive: 13.1 µM [inhibitor, partial curve]

Question: With CN1CN(C)c2ccc([N+](=O)[O-])c3cccc1c23 as the compound, how does the Potency read?
Answer: inactive

Question: For CC(=O)N1CCc2c(sc(NC(=O)C3COc4ccccc4O3)c2C(N)=O)C1 (configuration not stated), which Potency is on record?
Answer: active: 11.7 µM

Question: For CCOc1ccccc1OCCOc1ccccc1OC(C)C, which Potency is on record?
Answer: inactive

Question: Which Potency does the source give for CC(=O)Nc1ccc(S(=O)(=O)N[C@@H](C)C(=O)OCC(=O)NC2CCCC2)cc1 here?
Answer: inactive

Question: With CN1CCN(c2ccc([N+](=O)[O-])c3no[n+]([O-])c23)CC1 as the compound, how does the Potency read?
Answer: inconclusive: 2.08 µM [inhibitor, full curve, poor fit]

Question: With COc1ccc(NC(=O)C2CCCN2S(=O)(=O)c2ccc(C)cc2)cc1 (configuration not stated) as the compound, how does the Potency read?
Answer: inconclusive: 9.28 µM [inhibitor, partial curve]

Question: For CCOC(=O)c1sc(NC(=O)c2ccoc2C)c(C(N)=O)c1C, which Potency is on record?
Answer: inconclusive: 13.1 µM [inhibitor, single point]

Question: With Cc1ccc(Nc2c(-c3ccccn3)nc3cc(C)ccn23)cc1 as the compound, how does the Potency read?
Answer: active: 9.28 µM
